Experimental data published in PubChem BioAssay AID540256 (National Center for Advancing Translational Sciences (NCATS), 2011).
Out of some 300,000 compounds screened, about 3,700 (1.2%) were called active. The inconclusive results got no clear call from the source; some entries with a clear call stand among them for comparison. The call rests on the fitted dose curve; tested in HEK293 cells. Potencies of inconclusive entries are doubtful fits and often do not repeat.

Assay: qHTS for Inhibitors of binding or entry into cells for Lassa Virus; further: nearly all actives have a fitted effect of over 50% in size
Settings: Lassa virus pseudotype entry inhibition, cell reporter; series mostly up to 37.9 µM
Potency means the concentration at half of the fitted maximal effect.

Row | Compound | Potency
1 | Cc1nc(NC(=O)Nc2ccc(Cl)cc2)sc1C | inactive
2 | Cc1ccc(NC(=O)Cn2c(=O)n(CCCCC(=O)NCCc3ccccc3)c(=O)c3ccccc32)c(C)c1 | inconclusive: 35.5 µM [inhibitor, single point]
3 | O=C(Nc1ccc(F)cc1F)c1cc(-c2ccccc2O)no1 | inconclusive: 35.5 µM [inhibitor, single point]
4 | COc1cc(NC(=O)Cn2nc(C(F)(F)F)c3c2CCCC3)c(OC)cc1Cl | inconclusive: 35.5 µM [inhibitor, single point]
5 | O=c1ccc2ccc(Oc3ccc([N+](=O)[O-])cc3Cl)cc2o1 | inactive
6 | C/C(=N/NC(=O)c1ccccn1)c1ccco1 | inconclusive: 8.2 µM [inhibitor, partial curve]
7 | COc1ccc(CNC(=O)c2cnc3sc(N4CCCCCC4)nn3c2=O)cc1 | inconclusive: 2.82 µM [inhibitor, single point]
8 | CCN1C(=O)[C@@H]2[C@H]3[C@H](O)[C@H](O)CC(=NOC[C@@H](C)[C@H](OCc4ccccc4)C(C)C)[C@@H]3CC[C@H]2C1=O | inactive
9 | CC(=O)c1cn(CC(=O)Nc2ccc(C)cc2C)c2ccccc12 | inconclusive: 10 µM [inhibitor, partial curve, poor fit]
10 | CCOC(=O)c1ccc(NC(=O)Cn2cc(C(=O)c3ccc(CC)cc3)c(=O)c3ccc(C)nc32)cc1 | inactive
11 | COc1ccc(Oc2c(-c3ccc(O)cc3O)n[nH]c2C)cc1 | inconclusive: 11.6 µM [inhibitor, partial curve]
12 | CC(=O)Oc1ccc([N+](=O)[O-])cc1N1C(=O)c2ccccc2C1=O | inconclusive: 17.8 µM [inhibitor, single point]
13 | CC(C)Oc1ccccc1-c1cc(C(=O)N/N=C/c2cccnc2)c2ccccc2n1 | inconclusive: 15.8 µM [inhibitor, single point]
14 | COc1ccc(NC(=O)CN2CCCN(Cc3ccc(Cl)cc3)S2(=O)=O)cc1Cl | inactive
15 | Cc1onc(-c2ccccc2Cl)c1C(=O)Oc1cccc2cccnc12 | inconclusive: 8.91 µM [inhibitor, partial curve, poor fit]
16 | O=C(COC(=O)c1ccccc1F)NNC(=O)c1ccccc1 | inconclusive: 6.31 µM [inhibitor, single point]
17 | O=c1[nH]c(-c2ccccn2)nc2ccccc12 | inconclusive: 1.41 µM [activator, partial curve, poor fit]
18 | Cc1nc2ccc(NS(=O)(=O)c3ccc4c(c3)OCCO4)cc2s1 | inconclusive: 1 µM [inhibitor, full curve, poor fit]
19 | Cc1ccc(NC(=O)N2CCCCCC2)cc1 | inactive
20 | CSc1ccccc1NC(=O)c1ccc(C)o1 | inconclusive: 18.3 µM [activator, single point]
21 | CCN(CC)CCNC(=O)c1c(C)n(-c2ccccc2)c2cc(Br)c(OC)cc12 | active: 7.3 µM
22 | CCCCn1c(N)c(N(CC(C)C)C(=O)C(C)SCc2nc3sc(C)c(C)c3c(=O)[nH]2)c(=O)[nH]c1=O (stereo not drawn) | inactive
23 | CCOC(=O)C(c1ccccc1)N1CCN(c2ccc(OC)cc2)CC1 (stereo not drawn) | inconclusive: 35.5 µM [inhibitor, single point]

Row | Compound | Potency
24 | CCCCn1c(N)c(N(CCOC)C(=O)c2cc(-c3ccncc3)nc3ccccc23)c(=O)[nH]c1=O | inactive
25 | CSc1ncc(C(=O)NCc2cccc(F)c2)c(-c2ccccc2)n1 | inconclusive: 1 µM [activator, partial curve, poor fit]
26 | CC(C)Oc1ccc(CNC(=O)c2ccc(CN3CC(=O)N4CCCCC4C3=O)cc2)cc1 (stereo not drawn) | inactive
27 | O=C(CN1CC(=O)Nc2ccccc21)Nc1ccc(F)c(F)c1 | inactive
28 | Oc1c(C(c2ccc(Cl)cc2Cl)N2CCN(c3ccccc3)CC2)sc2nc(-c3ccco3)nn12 (stereo not drawn) | inactive
29 | CCN(CC)S(=O)(=O)c1cccc(NC(=O)CN(C)Cc2cccc(OC)c2)c1 | active: 11.2 µM
30 | Cc1cccc(OCc2nnc(SCC(=O)N(C(C)C)C(C)C)n2Cc2ccco2)c1C | inactive
31 | O=C(CN1CCOCC1)Nc1cccc(C(=O)Nc2cccc(C(F)(F)F)c2)c1 | inactive
32 | O=C(CCS(=O)(=O)c1cc2c(cc1Cl)NC(=O)CO2)NCc1ccccc1Cl | inactive
33 | Cc1ccc(CNC(=O)CSc2ncccn2)cc1 | inconclusive: 35.5 µM [activator, single point]
34 | CC(=NCC1CCCO1)c1c(O)n(Cc2ccccc2)c(=O)[nH]c1=O (stereo not drawn) | inconclusive: 10 µM [inhibitor, partial curve, poor fit]
35 | Cc1cccc(OCc2nc(-c3ccccn3)n[nH]2)c1 | inconclusive: 25.1 µM [inhibitor, single point]
36 | Oc1ccc2ccccc2c1C1Nc2cccc3cccc(c23)N1 | inactive
37 | CC(=O)Oc1ccc(-c2csc(Nc3cccnc3)n2)cc1 | inactive
38 | CCN(CC)c1ccc(C(=O)NNC(=O)CCl)cc1 | inconclusive: 35.5 µM [inhibitor, single point]
39 | CCC(CC)N1CCN(CC2CC=CCC2)CC1 (stereo not drawn) | inactive
40 | CCc1cc(C(=O)NNC(=S)Nc2cccc(C)c2)cs1 | inconclusive: 32.6 µM [activator, single point]
41 | COc1ccc(C2CC(c3ccccc3)Nc3nc(NC(=O)c4cccs4)nn32)cc1 (stereo not drawn) | inconclusive: 35.5 µM [inhibitor, single point]
42 | COC(=O)C1=C(c2ccccc2)c2ccccc2S(=O)(=O)N1CC(=O)Nc1ccc(F)c(F)c1 | active: 11.2 µM
43 | O=C1C=CC2(C=C1)O[C@H](Cc1ccccc1)[C@@H](Cc1ccccc1)O2 | active: 7.08 µM
44 | Cc1c(/C=N/NC(=O)c2cccnc2)c2ccccc2n1Cc1ccccc1 | inconclusive: 25.1 µM [inhibitor, single point]
45 | C=CCn1c(O)c(N=O)c2ccccc21 | inactive
46 | O=C(CNC(=O)c1ccccc1F)NCc1ccncc1 | inconclusive: 5.62 µM [inhibitor, single point]

Sorted by count of non-hydrogen atoms (descending): some entries from above.
Row | Compound | Potency
24 | CCCCn1c(N)c(N(CCOC)C(=O)c2cc(-c3ccncc3)nc3ccccc23)c(=O)[nH]c1=O | inactive
28 | Oc1c(C(c2ccc(Cl)cc2Cl)N2CCN(c3ccccc3)CC2)sc2nc(-c3ccco3)nn12 (stereo not drawn) | inactive
30 | Cc1cccc(OCc2nnc(SCC(=O)N(C(C)C)C(C)C)n2Cc2ccco2)c1C | inactive
41 | COc1ccc(C2CC(c3ccccc3)Nc3nc(NC(=O)c4cccs4)nn32)cc1 (stereo not drawn) | inconclusive: 35.5 µM [inhibitor, single point]
7 | COc1ccc(CNC(=O)c2cnc3sc(N4CCCCCC4)nn3c2=O)cc1 | inconclusive: 2.82 µM [inhibitor, single point]
4 | COc1cc(NC(=O)Cn2nc(C(F)(F)F)c3c2CCCC3)c(OC)cc1Cl | inconclusive: 35.5 µM [inhibitor, single point]
23 | CCOC(=O)C(c1ccccc1)N1CCN(c2ccc(OC)cc2)CC1 (stereo not drawn) | inconclusive: 35.5 µM [inhibitor, single point]
25 | CSc1ncc(C(=O)NCc2cccc(F)c2)c(-c2ccccc2)n1 | inconclusive: 1 µM [activator, partial curve, poor fit]
36 | Oc1ccc2ccccc2c1C1Nc2cccc3cccc(c23)N1 | inactive
5 | O=c1ccc2ccc(Oc3ccc([N+](=O)[O-])cc3Cl)cc2o1 | inactive
35 | Cc1cccc(OCc2nc(-c3ccccn3)n[nH]2)c1 | inconclusive: 25.1 µM [inhibitor, single point]
33 | Cc1ccc(CNC(=O)CSc2ncccn2)cc1 | inconclusive: 35.5 µM [activator, single point]
1 | Cc1nc(NC(=O)Nc2ccc(Cl)cc2)sc1C | inactive
45 | C=CCn1c(O)c(N=O)c2ccccc21 | inactive

(further entries)

Row | Compound | Potency
47 | O=[N+]([O-])c1ccc2oc(C(O)c3cccc(Cl)c3)cc2c1 (stereo not drawn) | inconclusive: 35.5 µM [inhibitor, single point]
48 | O=C(CCc1c[nH]c2ccccc12)N=Nc1c(O)[nH]c2ccccc12 | inconclusive: 10 µM [inhibitor, partial curve, poor fit]
49 | CCn1cc(CNC(=O)CSc2nc(-c3ccc(OC)c(OC)c3)cc(C(F)(F)F)n2)c(C)n1 | inconclusive: 0.398 µM [inhibitor, partial curve, poor fit]
50 | CCOc1ccc(C(=O)Nc2cccc(SC)c2)cc1 | inconclusive: 5.62 µM [activator, single point]
51 | Cc1ccc(CNC(=O)c2ccc(N3CCc4ccccc43)c([N+](=O)[O-])c2)cc1 | inconclusive: 6.31 µM [inhibitor, partial curve, poor fit]
52 | Cc1cc(C(=O)CSc2nnnn2C)c(C)n1CCc1ccc(F)cc1 | inactive
53 | COc1ccc(-c2noc(CCC(=O)N(C)c3cccc(C)c3)n2)cc1 | inconclusive: 11.2 µM [inhibitor, partial curve, poor fit]
54 | CCOC(=O)C1CCCN(C(=O)CNC(=O)Cn2ccc3ccccc3c2=O)C1 (stereo not drawn) | inconclusive: 14.6 µM [inhibitor, partial curve, poor fit]
55 | COc1ccc(NC(=O)Cn2nnc(-c3ccccc3NC(=O)c3ccco3)n2)cc1 | inconclusive: 7.08 µM [inhibitor, partial curve, poor fit]
56 | Cc1ccc(NC(=O)c2cnn3c(C(F)F)cc(-c4ccccc4)nc23)cc1F | inactive
57 | CCCCOP(=O)(c1ccc(N(C)C)cc1)C(O)c1cc(OC)ccc1OC (stereo not drawn) | inconclusive: 1.26 µM [activator, partial curve, poor fit]
58 | O=C(CCC(=O)c1ccc(F)cc1)Nc1cccc(S(=O)(=O)Nc2cccc(Cl)c2)c1 | inconclusive: 23.1 µM [inhibitor, single point]
59 | O=C(O)c1ccccc1C(=O)N1CCN(C(=O)c2ccccc2Cl)CC1 | inactive
60 | Cc1nc([N+](=O)[O-])nn1C12CC3CC(CC(Br)(C3)C1)C2 | inconclusive: 1.64 µM [inhibitor, partial curve, poor fit]
61 | O=C(Cc1ccccc1[N+](=O)[O-])N1CCN(c2ccc(F)cc2)CC1 | inactive
62 | CNC(=S)N1N=C(c2ccc(Br)cc2)CC1c1ccc(OC)cc1 (stereo not drawn) | inconclusive: 16.4 µM [inhibitor, partial curve, poor fit]
63 | CCn1c(-c2ccc(F)cc2)cnc1SCC(=O)N1CCc2ccccc21 | inconclusive: 4.11 µM [activator, partial curve, poor fit]
64 | CCCOc1ccc(-c2c(C(=O)N/N=C(\C)c3cccs3)nnn2-c2nonc2N)cc1 | inconclusive: 8.91 µM [inhibitor, single point]
65 | COc1ccc(C(c2nnnn2Cc2ccc(F)cc2)N2CCN(c3ccccc3)CC2)cc1 (stereo not drawn) | inconclusive: 11.2 µM [inhibitor, partial curve, poor fit]
66 | CN(c1ccc(C(=O)NCCSC(C)(C)C)cc1)S(C)(=O)=O | inconclusive: 3.55 µM [activator, partial curve, poor fit]
67 | COC(=O)N1C(C=Cc2ccc3c(c2)OCO3)=Cc2ccccc2C1CC(C)=O (stereo not drawn) | inconclusive: 0.944 µM [inhibitor, full curve, poor fit]
68 | O=C(NCc1cccc(Cl)c1)c1ccc2ccccc2n1 | inconclusive: 10 µM [inhibitor, partial curve, poor fit]

Taken from above.
CC(C)Oc1ccccc1-c1cc(C(=O)N/N=C/c2cccnc2)c2ccccc2n1 – Potency: inconclusive: 15.8 µM [inhibitor, single point]
COc1ccc(NC(=O)Cn2nnc(-c3ccccc3NC(=O)c3ccco3)n2)cc1 – Potency: inconclusive: 7.08 µM [inhibitor, partial curve, poor fit]
